In patent US20100216191A1, “Method for Manufacturing a Modified Peptide” (PROCOMCURE BIOTECH GMBH, priority 2007, published 2010):
No constants are given. Whether binding was seen depends on the method and setting. Some results given as binding are weak or reduced against the parent protein; the word gives no strength.

The chains behind the UniProt entries cited, without tags or fusion partners. Where a name states a change or a piece, a line headed by the entry shows the natural chain unless it says otherwise.
UniProt P02538: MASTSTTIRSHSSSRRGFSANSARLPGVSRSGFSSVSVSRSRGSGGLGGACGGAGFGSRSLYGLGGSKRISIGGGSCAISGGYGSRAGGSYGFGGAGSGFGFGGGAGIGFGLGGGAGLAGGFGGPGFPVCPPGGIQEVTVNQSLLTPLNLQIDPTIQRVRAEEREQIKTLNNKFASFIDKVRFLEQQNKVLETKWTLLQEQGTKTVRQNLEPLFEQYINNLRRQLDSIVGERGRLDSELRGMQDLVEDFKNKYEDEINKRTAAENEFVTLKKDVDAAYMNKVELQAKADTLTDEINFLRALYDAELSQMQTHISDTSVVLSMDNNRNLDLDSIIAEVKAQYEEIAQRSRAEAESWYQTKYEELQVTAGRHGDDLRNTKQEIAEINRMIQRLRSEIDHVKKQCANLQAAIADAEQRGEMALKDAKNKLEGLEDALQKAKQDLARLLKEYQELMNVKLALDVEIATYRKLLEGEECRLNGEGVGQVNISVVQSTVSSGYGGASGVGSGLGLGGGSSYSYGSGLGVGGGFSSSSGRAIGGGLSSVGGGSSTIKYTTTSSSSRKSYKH
UniProt P05787: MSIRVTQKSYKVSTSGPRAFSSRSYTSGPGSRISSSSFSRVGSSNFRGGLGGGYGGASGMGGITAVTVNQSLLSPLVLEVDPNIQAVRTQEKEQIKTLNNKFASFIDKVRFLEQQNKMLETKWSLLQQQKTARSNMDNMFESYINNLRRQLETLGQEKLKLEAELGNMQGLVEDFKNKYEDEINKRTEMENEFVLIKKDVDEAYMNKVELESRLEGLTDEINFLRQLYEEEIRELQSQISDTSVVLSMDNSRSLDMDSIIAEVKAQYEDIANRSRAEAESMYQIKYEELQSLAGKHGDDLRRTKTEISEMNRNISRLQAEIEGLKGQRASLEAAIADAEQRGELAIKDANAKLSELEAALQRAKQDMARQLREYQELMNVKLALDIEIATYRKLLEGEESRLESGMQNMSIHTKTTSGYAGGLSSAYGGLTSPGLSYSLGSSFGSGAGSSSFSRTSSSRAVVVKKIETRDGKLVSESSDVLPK
UniProt P13647: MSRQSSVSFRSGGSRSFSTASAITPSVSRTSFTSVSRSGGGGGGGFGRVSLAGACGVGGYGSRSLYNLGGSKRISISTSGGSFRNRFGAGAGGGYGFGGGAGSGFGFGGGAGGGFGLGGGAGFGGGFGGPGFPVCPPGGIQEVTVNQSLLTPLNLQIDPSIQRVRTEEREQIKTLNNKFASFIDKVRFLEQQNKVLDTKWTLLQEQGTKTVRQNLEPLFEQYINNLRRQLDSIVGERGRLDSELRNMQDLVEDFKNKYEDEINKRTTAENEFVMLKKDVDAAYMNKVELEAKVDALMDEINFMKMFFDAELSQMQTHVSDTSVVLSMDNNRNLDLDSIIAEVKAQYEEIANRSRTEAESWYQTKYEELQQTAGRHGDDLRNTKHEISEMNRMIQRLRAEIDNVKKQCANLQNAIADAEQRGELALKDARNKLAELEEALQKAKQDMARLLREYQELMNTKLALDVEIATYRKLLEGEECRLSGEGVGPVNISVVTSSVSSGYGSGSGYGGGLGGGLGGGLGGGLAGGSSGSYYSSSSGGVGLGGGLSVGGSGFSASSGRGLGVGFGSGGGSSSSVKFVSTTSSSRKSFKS

Experiments:
[1] = molecular target: ClfB (clumping factor B of S. aureus, NCBI Protein GI 15925620) (Staphylococcus aureus) (UniProt Q99R07); assay: pull-down and immunoprecipitation with recombinant proteins
[2] = molecular target: ClfB (clumping factor B of S. aureus, NCBI Protein GI 15925620) (Staphylococcus aureus) (UniProt Q99R07); assay: Y2H screen, human keratinocyte cDNA library
[3] = molecular target: ClfB (clumping factor B of S. aureus, NCBI Protein GI 15925620) (Staphylococcus aureus) (UniProt Q99R07); assay: pull-down
[4] = molecular target: ClfB (clumping factor B of S. aureus, NCBI Protein GI 15925620) (Staphylococcus aureus) (UniProt Q99R07); assay: Y2H screen

Row | Substance | binding [1] | binding [2] | binding [3] | binding [4]
1 | KRT6A (from UniProt P02538 1-564) | binds | binds | – | –
2 | KRT8 (Keratin 8, NCBI Protein GI 50368987) (from UniProt P05787 374-483) | binds | binds | binds | binds
3 | KRT5 (from UniProt P13647 1-590) | binds | binds | – | –
